Values of other authors, collected in patent US20260007687A1, “A[…] EMULSION INJECTION AND METHOD FOR PREPARING SAME” (JIANGSU NHWA PHARMACEUTICAL CO., LTD, priority 2022, published 2026).

Conditions: background statement; cited from earlier work

Compound: CC(=O)[C@H]1CC[C@H]2[C@@H]3CC[C@H]4C[C@H](O)CC[C@]4(C)[C@H]3C(=O)C[C@]12C [alphaxalone]
- potency of alphaxalone relative to propofol: 5 times
